Here are results for 36 compounds from PubChem BioAssay AID2685 (National Center for Advancing Translational Sciences (NCATS), 2010).

A short description of the experiment: qHTS Assay for Lipid Storage Modulators in Drosophila S3 Cells.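 As to cell number change: cells counted by Cell Tracker Red CMTPX staining in the red channel.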 The following applies: BODIPY lipid droplet fluorescence, 18-24 h; for cell number change: measured here: cell count max response, cells fed with added oleic acid. The procedure, abridged:
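Drosophila S3 cells got compounds at several concentrations plus oleic acid (400 uM solution). Laser-scanning cytometry with 488 nm excitation read lipid droplets at 500-530 nm and cells at 575-640 nm. Percent activity was relative to 20 uM Triacsin C.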
(Quantitative high-throughput screening tests each substance at several concentrations.)

Setting [1] is: measured here: lipid fluorescence (Fed channel) AC50, cells fed with added oleic acid.
Where [2] appears, read: measured here: cell number channel AC50, cells fed with added oleic acid.

This is one part of the list. The main result of the screen is listed elsewhere. These columns were measured beside it and carry no call. Most of these compounds were active or inconclusive in the main read-out, so they are no random draw. The note in brackets gives the kind of curve behind each potency; many fits are weak.

Consider `N#CC1=C(N)N(c2ccc(F)cc2)C2=C(C1c1ccc(O)cc1)S(=O)(=O)CC2` (stereo unspecified), for which the cell number change stood at 7.59%. Besides, the AC50 under setting [1] is 0.517 µM [falling, single point].
In the case of `Cc1coc2cc3oc(=O)c(CC(=O)N4C[C@H]5C[C@@H](C4)c4cccc(=O)n4C5)c(C)c3cc12`, the cell number change is 17.5%. For the same compound, the AC50 under setting [1] is 6.51 µM [falling, single point].
Regarding `COc1cc(CN2CC(=O)N(c3ccccc3Cl)C2=S)cc(OC)c1OC`, the cell number change is -50%. Moreover, under setting [2], the AC50 was 29.1 µM [falling, single point].
As for `CCOc1ccc(-c2noc(CCCC(=O)NCC3CCCO3)n2)cc1OC` (stereo unspecified), the cell number change is -18.3%. The AC50 under setting [1] was 23.1 µM [falling, single point].
For `CN1/C(=C\C(=O)COC(=O)c2ccc(O)c(O)c2)C(C)(C)c2ccccc21`, the cell number change was -33.8%. In addition, the AC50 under setting [2] was 4.61 µM [falling, full curve, poor fit]. In addition, the AC50 under setting [1] was 0.116 µM [falling, full curve, poor fit].
As to `CCOc1cc(/C=N/NS(=O)(=O)c2ccccc2)ccc1OS(=O)(=O)c1ccc(C)cc1`, the cell number change is 58.5%. Also, the AC50 under setting [2] was 16.4 µM [rising, single point]. Besides, the AC50 under setting [1] is 20.6 µM [rising, single point].
Take `COc1ccc(CCC(=O)Nc2cc(S(=O)(=O)N3CCOCC3)ccc2OC(C)C)cc1`: the cell number change came out at 4.82%. Moreover, the AC50 under setting [1] is 6.51 µM [rising, single point].
Consider `CC(C)[C@H](NC(=O)N1CC(=O)Nc2ccccc21)C(=O)N1CCC[C@H]1C(=O)O`, for which the cell number change was 29.1%. Also, the AC50 under setting [2] was 2.06 µM [rising, full curve, poor fit].
As to `O=C(Nc1ccccc1Cl)c1cc(=O)c2ccccc2o1`, the cell number change was -15.7%.
`COc1ccc2cc3cc(C(=O)NCCc4ccc(OC)c(OC)c4)oc3nc2c1`: the cell number change is -56.8%. In addition, the AC50 under setting [2] was 14.6 µM [falling, partial curve]. The AC50 under setting [1] is 18.4 µM [falling, partial curve].
For the compound `COc1cc(C2Nc3cccc4cccc(c34)N2)cc(OC)c1OC(C)=O`, the cell number change is -34.8%. Besides, under setting [2], the AC50 was 5.8 µM [falling, full curve, poor fit]. Further, the AC50 under setting [1] is 5.8 µM [falling, full curve].
In the case of `O=C(Cn1ccc(NC(=O)OCc2ccccc2)nc1=O)NCCCn1ccnc1`, the cell number change was -19.4%. In addition, the AC50 under setting [1] is 29.1 µM [falling, single point].
In the case of `Cc1cccc(-n2c(Cc3cc(=O)[nH]c(=O)[nH]3)nnc2SCC(=O)NCC2CCCO2)c1` (stereo unspecified), the cell number change was -12.7%.
Consider `O=[N+]([O-])c1cc([N+](=O)[O-])c(Oc2cc(F)cc(F)c2F)cc1NN1CCCCC1`, for which the cell number change is 15%. Moreover, the AC50 under setting [1] is 29.1 µM [rising, single point].
As for `Cc1ccc(-c2nc3cc(Br)cnc3nc2-c2ccc(C)cc2)cc1`, the cell number change was 7.17%. Besides, the AC50 under setting [1] is 0.731 µM [rising, full curve, poor fit].
For `CCC(=O)Nc1cccc(NC(=O)c2ccc3c(c2)OCO3)c1`, under setting [1], the AC50 is 2.06 µM [rising, partial curve].
On to `Cc1nc(Nc2ccc3c(c2)OCO3)c2oc3ccccc3c2n1`, for which the cell number change was -22.1%. In addition, the AC50 under setting [1] is 0.651 µM [falling, single point].
For the compound `CCCn1nc(C(=O)NNC(=O)c2cc(S(=O)(=O)NC)ccc2Br)c2ccccc2c1=O`, the AC50 under setting [2] was 6.51 µM [rising, single point].
Consider `CC(C)N1CCN(Cc2ccc(C#CCCO)cc2)CC1CCO` (stereo unspecified), for which the cell number change came to 7.38%.
As for `COc1cccc(CN(C)CC(=O)Nc2cc(S(=O)(=O)N3CCCC3)ccc2Cl)c1OC`, the cell number change amounted to 1.61%.
Regarding `O=C(CCn1c(=O)c2cccn2c2cccnc21)N1CCN(c2cccc(Cl)c2)CC1`, the cell number change is -23%. The AC50 under setting [2] is 0.231 µM [falling, full curve, poor fit].
Consider `CC1=Cc2ccccc2C(C#N)N1C(=O)c1ccccc1` (stereo unspecified), for which the cell number change was found to be 4.83%. Also, the AC50 under setting [1] is 2.59 µM [rising, full curve].
Take `CN1C(=O)Cc2cc(S(=O)(=O)NCCc3ccccc3)ccc21`: the cell number change was 19.7%.
As for `COc1cnc(-c2ccccc2)nc1Oc1ccc(C(C)(C)C)cc1`, the cell number change was -39%. Also, the AC50 under setting [2] was 18.4 µM [falling, partial curve]. Also, the AC50 under setting [1] is 20.6 µM [falling, single point].
Turning to `COc1ccc2[nH]c(=O)c(CN(C(C)=O)c3cccc(C)c3)cc2c1`, the cell number change stood at 10%. In addition, the AC50 under setting [1] is 0.116 µM [rising, single point].
In the case of `Cc1ccc(Cl)cc1N1CCN(C(=O)Cc2c(C(=O)O)[nH]c3ccc(Cl)cc23)CC1`, the cell number change was -15.6%. In addition, the AC50 under setting [1] was 0.092 µM [falling, full curve, poor fit].
In the case of `CCN(C(=O)COC(=O)/C=C/c1ccc(C)o1)c1c(N)n(Cc2ccccc2)c(=O)[nH]c1=O`, the cell number change was -3.25%. Besides, the AC50 under setting [1] is 0.731 µM [falling, single point].
`Cc1n[nH]c(C)c1Sc1ccccc1[N+](=O)[O-]`: the cell number change is 22.6%. Also, the AC50 under setting [2] was 0.58 µM [rising, single point]. Besides, the AC50 under setting [1] was 6.51 µM [rising, single point].
For the compound `Cc1cc([N+](=O)[O-])nn1Cc1noc(C(=O)NCc2ccc3c(c2)OCO3)n1`, the cell number change stood at 16.1%. Further, the AC50 under setting [1] is 29.1 µM [rising, single point].
On to `CCn1c(SCC(=O)NC2CCCC2)nc2c1c(=O)n(C)c(=O)n2C`, for which the cell number change came out at 7.39%. The AC50 under setting [1] was 6.51 µM [falling, single point].
Turning to `COc1ccc2c(c1OC)C(=O)N1c3ccccc3C(=O)N(c3ccccc3F)C21` (stereo unspecified), the cell number change was -156%. Moreover, the AC50 under setting [2] was 18.4 µM [falling, partial curve].
In the case of `Cc1nn(C)c(=O)n1-c1ccccc1`, the AC50 under setting [2] was 0.0231 µM [falling, full curve, poor fit] and the AC50 under setting [1] is 0.103 µM [falling, full curve, poor fit].
Turning to `CC(NC(=O)c1cc(COc2c(F)cccc2F)on1)c1cnn(-c2ccccc2)c1` (stereo unspecified), the cell number change is -63.1%. The AC50 under setting [2] is 0.92 µM [falling, full curve].
Turning to `Clc1nc(Nc2ccc(N3CCOCC3)cc2)c2ccccc2n1`, the cell number change was -11.8%. Also, the concentration at half-maximal activity (AC50) under setting [1] was 23.1 µM [falling, partial curve, poor fit].
As for `O=S(=O)(c1ccc2nc(COc3ccc(Cl)cc3Cl)[nH]c2c1)N1CCOCC1`, the cell number change was 17.3%. The AC50 under setting [1] is 14.6 µM [falling, partial curve].
For the compound `O=C(c1ccc(N2CCCC2=O)cc1)N1CCN(c2ccccc2)CC1`, the cell number change came to 27.7%. Also, the AC50 under setting [1] was 20.6 µM [rising, partial curve, poor fit].

A word on the AC50: it is the concentration at which the activity in the assay is half-maximal. Read a high AC50 as weaker potency.
